Experimental data from PubChem BioAssay AID1671190 (National Center for Advancing Translational Sciences (NCATS), 2021).
Among all 580,000 compounds or so, about 6,100 (1.1%) were called active. Inconclusive results, whose numbers are uncertain, are shown with a selection of clear calls. Calls come from the whole dose curve; as a rule, active = well fitted inhibition curve with a large enough effect; inconclusive = small, poorly fitted or top-dose-only effect, or another doubt; inactive = no such curve, though single readings can be large or run the other way. Where the call is inconclusive, the potency comes from a doubtful curve fit.
% is set by controls: 0 for no effect and ±100 for the full control effect; potency is the fitted concentration of half-maximal effect.

The chains behind the UniProt entries cited, without tags or fusion partners.
UniProt P18054, whole entry, looked up: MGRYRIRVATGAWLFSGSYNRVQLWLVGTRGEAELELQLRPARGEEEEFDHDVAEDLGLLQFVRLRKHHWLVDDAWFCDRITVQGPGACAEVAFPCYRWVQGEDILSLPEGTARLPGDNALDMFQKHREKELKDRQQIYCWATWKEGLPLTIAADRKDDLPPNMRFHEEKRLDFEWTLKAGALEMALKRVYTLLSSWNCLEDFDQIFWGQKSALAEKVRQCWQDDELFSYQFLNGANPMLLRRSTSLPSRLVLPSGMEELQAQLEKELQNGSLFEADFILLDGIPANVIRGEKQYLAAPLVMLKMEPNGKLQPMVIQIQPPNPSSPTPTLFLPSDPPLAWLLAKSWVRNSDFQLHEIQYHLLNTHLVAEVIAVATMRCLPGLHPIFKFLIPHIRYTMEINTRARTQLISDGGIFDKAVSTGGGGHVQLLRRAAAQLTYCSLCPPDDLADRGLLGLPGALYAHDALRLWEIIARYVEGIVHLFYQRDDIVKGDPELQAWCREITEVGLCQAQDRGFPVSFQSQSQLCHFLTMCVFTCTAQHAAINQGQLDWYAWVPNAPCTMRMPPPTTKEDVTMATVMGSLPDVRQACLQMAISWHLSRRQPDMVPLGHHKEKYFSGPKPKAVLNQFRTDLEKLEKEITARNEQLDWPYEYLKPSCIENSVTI

What follows are compounds tested against Polyunsaturated fatty acid lipoxygenase ALOX12 (Homo sapiens) (UniProt P18054) (assay: Primary qHTS assay for inhibitors of human arachidonate 12S-lipoxygenase (ALOX12): Round 2). Details: purified 12hLO, xylenol orange hydroperoxide absorbance; activity change, negative = inhibition: at 108 µM (top of the series) unless noted.
Outline: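 Purified human 12hLO at 150 nM in 25 mM Hepes, 0.01% Triton X-100, pH 7.0, preincubated 15 min at room temperature with compound. Reaction started with 40 uM arachidonic acid, 30 min at room temperature. Hydroperoxide measured by Fe-xylenol orange, 573/405 nm absorbance ratio.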
For CC(Cc1cccs1)NC(=S)Nc1ccccc1 (configuration not stated), the Potency was inconclusive: 44.7 µM [inhibitor, partial curve, poor fit]. For COc1ccc2[nH]c(C(=O)NCc3cccnc3)c(C)c2c1, the “activity change, negative = inhibition” value was inactive: 15.4%. COc1ccc(CCNC(=O)c2cccc3c(=O)c(C)c(-c4ccccc4)oc23)cc1OC was tested, and the Potency was inconclusive: 17.8 µM [inhibitor, partial curve, poor fit]. Cc1nc2c(C)cccn2c(=O)c1NC(=O)c1ccc2c(c1)OCO2 was tested, and the Potency was inconclusive: 112 µM [inhibitor, partial curve, poor fit]. Cc1ccc2nc(CO[C@H]3CN(Cc4ccc(C(=O)O)cc4)C[C@H]3F)[nH]c2c1 was tested, and the “activity change, negative = inhibition” value was inactive: 3.85% [at 176 µM]. With S=c1[nH]nc(Cc2cccs2)n1-c1cccc2ccccc12 the Potency was inconclusive: 44.7 µM [inhibitor, partial curve, poor fit]. O=C1NC2(CCN(CC3CCCCC3)C2)Oc2ccccc21 (configuration not stated) was tested, and the Potency was inconclusive: 25.1 µM [inhibitor, full curve]. For C/C=C/C=C/C(=O)N1CC2(CC(c3cccc(NC(=O)CCCCC)c3)=NO2)C[C@H]1C(N)=O (some centres not stated), the Potency was inconclusive: 28.2 µM [inhibitor, partial curve]. COc1cccc(C2=NN(C(=O)c3ccc(C)o3)C(O)(C(F)(F)F)C2)c1 (configuration not stated) was tested, and the Potency was inconclusive: 126 µM [inhibitor, single point]. With Cc1ccc(N2CCN(C(=O)C(=O)c3cccc([N+](=O)[O-])c3)CC2)cc1 the “activity change, negative = inhibition” value was inactive: -17.4%. For C=CCn1c(=O)c2c(nc(-n3nc(C)cc3C)n2CC(C)C)n(C)c1=O, the “activity change, negative = inhibition” value was inactive: -4.06%. In the case of CCC1(N2CCN(C(=O)Nc3cc(C)ccc3OC)CC2)CCN(C(=O)C(C)C)C1 (configuration not stated), the Potency is reported as inconclusive: 5.01 µM [inhibitor, partial curve]. For COc1ccc(CNC(=O)c2cc(Nc3ccc(OC)cc3OC)nc3ccccc23)cc1, the Potency was inconclusive: 100 µM [inhibitor, partial curve, poor fit]. In the case of Brc1ccc(-c2noc(C34CC5CC(CC(C5)C3)C4)n2)cc1, the “activity change, negative = inhibition” value is reported as inactive: 44.4%. C[C@@H]1CN([C@@H](C)CO)C(=O)c2cc(NC(=O)Nc3ccc4c(c3)OCO4)ccc2O[C@H]1CN(C)S(=O)(=O)c1ccc(F)cc1 was tested, and the “activity change, negative = inhibition” value was inactive: -16.3%. Cc1ccc(-n2nc(CO)c(C(=O)NCCO)n2)cc1 was tested, and the “activity change, negative = inhibition” value was inactive: -9.34%. With CC(=O)Nc1cc(-c2ccccc2N(C)C)cn2c(-c3ccc(F)c(Cl)c3)cnc12 the Potency was inconclusive: 12.6 µM [inhibitor, full curve, poor fit]. With COC(=O)CC1C(=O)NCCN1S(=O)(=O)c1ccc(Cl)cc1C(F)(F)F (configuration not stated) the “activity change, negative = inhibition” value was inactive: 18.6%. In the case of Cc1ccc(OC2(C(=O)NC(C)c3nn[nH]n3)CCNCC2)cc1 (configuration not stated), the “activity change, negative = inhibition” value is reported as inactive: -7.28%. With COc1cccc(CN2CCN(C(=S)NCc3ccc(Cl)cc3)CC2)c1 the “activity change, negative = inhibition” value was inactive: -3.1%. With COCC(C)n1c(C)cc(C(=O)CSc2nc3nc(C)cc(C)n3n2)c1C (configuration not stated) the “activity change, negative = inhibition” value was inactive: -14%. For Cc1ccc(C(=O)COc2cc(C)nc3nncn23)cc1, the Potency was inconclusive: 141 µM [inhibitor, single point]. In the case of COc1cc(CNc2ccc(N3CCOCC3)cc2)cc(Br)c1OC, the Potency is reported as inconclusive: 20 µM [inhibitor, full curve, poor fit]. For NC(N)=N/N=C/c1ccc(OCc2ccccc2Cl)cc1, the Potency was inconclusive: 50.1 µM [inhibitor, partial curve, poor fit]. With CC(C)NC(=O)C1C(c2ccccc2)=Nc2ccccc2N1C(=O)c1ccc(C(F)(F)F)cc1 (configuration not stated) the “activity change, negative = inhibition” value was inactive: -63.2%. With CCCCOc1ccc(C(=O)NC(=S)Nc2ccc(CN3CCOCC3)cc2)cc1 the Potency was inconclusive: 31.6 µM [inhibitor, partial curve, poor fit]. In the case of O=C(CC12CC3CC(CC(C3)C1)C2)N1CCOCC1, the “activity change, negative = inhibition” value is reported as inactive: -21.3%. For CN(C)/C=C/C(=O)c1ccc(Cl)s1, the Potency was inconclusive: 39.8 µM [inhibitor, partial curve, poor fit]. COc1ccc(NS(=O)(=O)c2ccc(OCC(=O)NCc3ccccc3OC)c(C)c2)cc1 was tested, and the Potency was inconclusive: 3.55 µM [inhibitor, full curve, poor fit]. COc1ccccc1-c1nccc(NCc2cnc(C)cn2)n1 was tested, and the Potency was inconclusive: 25.1 µM [inhibitor, partial curve, poor fit]. COc1ccc(N/N=C2/CCCCC2=O)cc1 was tested, and the Potency was inconclusive: 22.4 µM [inhibitor, partial curve]. For O=C(NC(=S)Nc1ccc(F)c([N+](=O)[O-])c1)c1ccccc1F, the “activity change, negative = inhibition” value was inactive: -16.6%. With O=C(CSc1nc2ccc(NC(=O)c3ccc(F)cc3)cc2s1)NC1CCCCC1 the Potency was active: 3.98 µM. With c1ccc2c(-c3c[nH]c4ccccc34)c3ccccc3nc2c1 the Potency was inconclusive: 89.1 µM [inhibitor, single point]. For COc1ccc2c(CC(=O)N3CCN(S(=O)(=O)c4ccc(F)cc4)CC3)coc2c1, the Potency was inconclusive: 50.1 µM [inhibitor, partial curve, poor fit]. CCn1c(CSc2nc(C)cs2)nc2cc(S(=O)(=O)N(C)C)ccc21 was tested, and the “activity change, negative = inhibition” value was inactive: -5%. With COc1ccc(C)cc1NC(=O)c1ccccc1NS(=O)(=O)c1ccc(Cl)s1 the Potency was inconclusive: 56.2 µM [inhibitor, partial curve, poor fit]. In the case of CNC(=O)c1nn(-c2ccccc2)ccc1=O, the Potency is reported as inconclusive: 126 µM [inhibitor, single point]. In the case of Cc1ccccc1OCCn1c(=O)sc2ccccc21, the “activity change, negative = inhibition” value is reported as inactive: 0%. Cc1ccc(NC(=O)Cn2nc(C)c(S(=O)(=O)N(C)C)c2C)cc1C was tested, and the “activity change, negative = inhibition” value was inactive: -13.3%. For COC(=O)c1cc(Cl)ccc1NC(=O)Cn1c(C)cc(C)c(C#N)c1=O, the Potency was inconclusive: 50.1 µM [inhibitor, partial curve, poor fit]. In the case of COCC(C)Nc1ncnc2c1cnn2-c1ccc(Cl)cc1 (configuration not stated), the “activity change, negative = inhibition” value is reported as inactive: 0.381%. With CCN(CC)c1ncnc2c1ncn2[C@H]1CN(CCOC)C[C@@H](CO)O1 the “activity change, negative = inhibition” value was inactive: -4.51%. For CC(=O)NCCC(=O)Nc1nc2c(ccc3ccccc32)s1, the Potency was inconclusive: 44.7 µM [inhibitor, partial curve, poor fit]. With CCOC(=O)c1nn(-c2ccc3c(c2)OCO3)cc1O the Potency was inconclusive: 39.8 µM [inhibitor, partial curve, poor fit]. In the case of CCOc1ccccc1CN(CCc1ccc2c(c1)OCO2)Cc1cc(OC)c(OC)cc1OC, the Potency is reported as inconclusive: 50.1 µM [inhibitor, partial curve, poor fit]. For O=C(CC1COCCN1)N1CCN(C/C=C/c2ccccc2)CC1 (configuration not stated), the Potency was inconclusive: 39.8 µM [inhibitor, partial curve, poor fit]. In the case of Clc1ccc(CN2CCc3nc(Nc4ccc5c(c4)OCCO5)ncc3C2)cc1, the Potency is reported as inconclusive: 79.4 µM [inhibitor, partial curve, poor fit]. With Cc1sc(NC(=S)NC(=O)c2ccco2)c(C#N)c1C the Potency was inconclusive: 2.51 µM [inhibitor, partial curve, poor fit]. In the case of CNC(=O)c1[nH]cnc1C(=O)Nc1ccc(C)cc1, the “activity change, negative = inhibition” value is reported as inactive: 0%. For C[C@@H]1CCCCO[C@H](CN(C)C(=O)Cc2ccccc2)[C@H](C)CN([C@@H](C)CO)C(=O)c2cc(NC(=O)Nc3ccc(F)cc3)ccc2O1, the Potency was inconclusive: 100 µM [inhibitor, single point]. In the case of C[C@@H](C(=O)Nc1ccc2ccccc2c1)[C@H]1C[C@]1(C)[C@H](NS(=O)(=O)c1ccccc1)c1ccccc1, the Potency is reported as inconclusive: 112 µM [inhibitor, single point]. For S=c1nccc(-c2cc(Cl)sc2Cl)[nH]1, the Potency was inconclusive: 44.7 µM [inhibitor, partial curve, poor fit]. O=C(N/N=C/C(Br)=C/c1ccccc1)c1ccncc1 was tested, and the Potency was inconclusive: 15.8 µM [inhibitor, full curve, poor fit]. With Cc1ccccc1C(=O)NCc1ccc2c(c1)CCN2C(=O)c1ccccc1 the Potency was inconclusive: 158 µM [inhibitor, single point]. C#CCOCCOCCOCCNc1nc(N2CCN(C(=O)C([C@@H](C)O)n3cc([C@@H](N)CCCCN)nn3)CC2)nc(N2CCN(C(=O)[C@H](CCC(=O)O)n3cc([C@@H](N)[C@H](C)CC)nn3)CC2)n1 (some centres not stated) was tested, and the Potency was inconclusive: 0.316 µM [inhibitor, full curve, poor fit]. With Cc1nc(CN(C)c2ncnc3ccc(-c4ccc5c(c4)OCO5)cc23)cs1 the Potency was inconclusive: 50.1 µM [inhibitor, partial curve, poor fit]. For CC(=O)c1ccc(NC(=O)CN2C(=O)NC3(CCC(C)CC3)C2=O)cc1 (configuration not stated), the “activity change, negative = inhibition” value was inactive: -5.28%. For O=C(Cn1cnc2c(oc3ccccc32)c1=O)N1CCCc2ccccc21, the Potency was inconclusive: 39.8 µM [inhibitor, partial curve, poor fit]. CC1(C)Cc2c(c(N3CCOCC3)nc3sc(C(=O)N4CCCCC4)c(N)c23)CO1 was tested, and the Potency was inconclusive: 28.2 µM [inhibitor, partial curve]. For COc1cc(C(=O)NNC(=O)CCNC(=O)c2ccc3ccccc3c2)cc(OC)c1OC, the activity change, negative = inhibition was inconclusive: -31.6% [inhibitor]. For Cc1cccc(C(=O)NC2CCN(c3cc(-c4cccs4)[nH]n3)C2)c1 (configuration not stated), the “activity change, negative = inhibition” value was inactive: 41%. With CC1CCCN(S(=O)(=O)Cc2ccc(Cl)cc2)C1 (configuration not stated) the “activity change, negative = inhibition” value was inactive: 12.7%. CCOc1ccc(Nc2nc(-c3sc(NC(C)=O)nc3C)cs2)cc1 was tested, and the Potency was inconclusive: 5.01 µM [inhibitor, full curve, poor fit]. In the case of Cc1cc(S(=O)(=O)NCC(c2ccc(F)cc2)N2CCN(C)CC2)ccc1F (configuration not stated), the Potency is reported as inconclusive: 79.4 µM [inhibitor, partial curve, poor fit]. In the case of Cc1cc(Cl)ccc1OCCCc1n[nH]c(=S)n1Cc1ccccc1, the Potency is reported as active: 15.8 µM. With COc1ccc(Cl)cc1C(=O)N1CCC(Oc2ccc3c(cnn3CCC(=O)O)c2)CC1 the Potency was inconclusive: 63.1 µM [inhibitor, partial curve, poor fit].
